{"source": "paper doi:10.1101/2022.06.10.495700", "binders": {"B1": {"name": "RECEPTOR-LIKE PROTEIN 4 (receptor, UniProt F4HWL3 23-626)", "chain": "RPAPYALRISCGARKNVRTPPTYALWFKDIAYTGGVPANATTPTYITPPLKTLRYFPISEGPNNCYNIVRVPKGHYSVRIFFGLVDQPSFDKEPLFDISIEGTQISSLKSGWSSQDDQVFAEALIFLLGGTATICFHSTGHGDPAILSIEILQVDDKAYSFGEGWGQGVILRTATRLTCGTGKSRFDEDYRGDHWGGDRFWNRMRSFGKSADSPRSTEETIKKASVSPNFYPEGLYQSALVSTDDQPDLTYSLDVEPNRNYSVWLHFAEIDNTITAEGKRVFDVVINGDTFFEDVDIIKMSGGRYAALVLNATVTVSGRTLTVVLQPKAGGHAIINAIEVFEIITAEFKTLRDEVSALQKMKKALGLPSRFGWNGDPCVPPQHPWSGANCQLDKNTSRWFIDGLDLDNQGLKGFLPNDISKLKHLQSINLSENNIRGGIPASLGSVTSLEVLDLSYNSFNGSIPETLGELTSLRILNLNGNSLSGKVPAAVGGRLLHRASFNFTDNAGLCGIPGLPACGPHLSSGAKIGIAFGVSLAFLLIVACAMIWWKRRQNILRAQQIAARGAPYAKKRTHVSHDIQMSRHGHNNHGQARTAVENGPSLLS"}}, "target": "T1, YFP:RAB-A5c (Arabidopsis thaliana) (UniProt P28187)", "T1 sequence": "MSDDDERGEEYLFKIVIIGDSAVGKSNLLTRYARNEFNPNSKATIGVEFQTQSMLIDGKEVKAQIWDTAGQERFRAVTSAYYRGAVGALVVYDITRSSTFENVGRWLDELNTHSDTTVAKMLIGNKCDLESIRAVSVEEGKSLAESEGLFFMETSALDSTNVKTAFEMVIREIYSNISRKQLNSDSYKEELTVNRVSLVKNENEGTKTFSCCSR", "test": "affinity purification with mass spectrometry", "note": "No constants are given. Whether binding was seen depends on the method and setting. Binding seen in cells or lysates may run through a third protein. Here binding means that the protein was enriched with, or labelled near, the bait; the list need not be complete. Sequences can lack the tags named with a protein.", "data": [{"binder": "B1", "values": [{"measurement": "binding", "value": "binds"}]}]}
